The record followed here is the supplement of paper PMC8728848.

This is one part of the list.

Assay in all cases: glycan array binding signal (z-score within array); higher = stronger binding
What all share (settings): glycan notation: IUPAC condensed, linker removed

In assay [1] the target is GlcNAc(a1-3)Gal(b1-4)GlcNAc. Put shortly:
(§1)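 From the Consortium for Functional Glycomics database, 3228 arrays were curated, keeping only those whose protein sequence was available. Binding is given as a within-array Z-score averaged across arrays sharing a protein sequence and across linkers. Negative Z-scores can be read as non-binding.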

Assay [2] deals with GlcNAc(a1-4)Gal(b1-3)GlcNAc. Put shortly:
as §1

Assay [3] addresses GlcNAc(a1-4)Gal(b1-4)GalNAc. Put shortly: as §1
Assay [4] addresses GlcNAc(a1-4)Gal(b1-4)GlcNAc. Summed up:
as §1

The target of assay [5] is GlcNAc(a1-4)Gal(b1-4)GlcNAc(b1-3)Gal(b1-4)Glc. Put shortly: as §1
The target in assay [6] is GlcNAc(a1-4)Gal(b1-4)GlcNAc(b1-3)Gal(b1-4)GlcNAc. Summed up:
as §1

For assay [7], the target named is GlcNAc(a1-4)Gal(b1-4)GlcNAc(b1-3)Gal(b1-4)GlcNAc(b1-3)Gal(b1-4)GlcNAc. Put shortly:
as §1

Assay [8] has as its target GlcNAc(a1-4)Gal(b1-4)GlcNAc(b1-3)Gal(b1-4)[Fuc(a1-3)]GlcNAc(b1-3)Gal(b1-4)[Fuc(a1-3)]GlcNAc. Summed up:
as §1

Assay [9] has as its target GlcNAc(a1-6)Gal(b1-4)GlcNAc. Summed up: as §1
The target of assay [10] is GlcNAc(b1-2)Gal(b1-3)GalNAc. Summed up:
as §1

The target of assay [11] is GlcNAc(b1-2)Man(a1-3)[GlcNAc(b1-2)Man(a1-6)]Man(b1-4)GlcNAc(b1-4)GlcNAc. Put shortly:
as §1

In assay [12] the target is GlcNAc(b1-2)Man(a1-3)[GlcNAc(b1-2)Man(a1-6)]Man(b1-4)GlcNAc(b1-4)[Fuc(a1-6)]GlcNAc. Put shortly: as §1
For assay [13], the target named is GlcNAc(b1-2)Man(a1-3)[GlcNAc(b1-4)][GlcNAc(b1-2)Man(a1-6)]Man(b1-4)GlcNAc(b1-4)GlcNAc. Put shortly:
as §1

For assay [14], the target named is GlcNAc(b1-2)Man(a1-3)[GlcNAc(b1-4)][GlcNAc(b1-2)Man(a1-6)]Man(b1-4)GlcNAc(b1-4)[Fuc(a1-6)]GlcNAc. Put shortly: as §1
Assay [15] concerns the target GlcNAc(b1-2)[GlcNAc(b1-4)]Man(a1-3)[GlcNAc(b1-2)Man(a1-6)]Man(b1-4)GlcNAc(b1-4)GlcNAc. Put shortly:
as §1

Assay [16] addresses GlcNAc(b1-2)[GlcNAc(b1-4)]Man(a1-3)[GlcNAc(b1-4)][GlcNAc(b1-2)Man(a1-6)]Man(b1-4)GlcNAc(b1-4)GlcNAc. Summed up: as §1
Assay [17] addresses GlcNAc(b1-2)[GlcNAc(b1-4)]Man(a1-3)[GlcNAc(b1-4)][GlcNAc(b1-2)[GlcNAc(b1-6)]Man(a1-6)]Man(b1-4)GlcNAc(b1-4)GlcNAc. Put shortly:
as §1

Assay [18] deals with GlcNAc(b1-2)[GlcNAc(b1-4)]Man(a1-3)[GlcNAc(b1-4)][GlcNAc(b1-2)[GlcNAc(b1-6)]Man(a1-6)]Man(b1-4)GlcNAc(b1-4)[Fuc(a1-6)]GlcNAc. Put shortly: as §1
Assay [19] has as its target GlcNAc(b1-2)[GlcNAc(b1-6)]Man(a1-6)[GlcNAc(b1-2)Man(a1-3)]Man(b1-4)GlcNAc(b1-4)GlcNAc. Put shortly: as §1
Assay [20] has as its target GlcNAc(b1-2)[GlcNAc(b1-6)]Man(a1-6)[GlcNAc(b1-2)Man(a1-3)]Man(b1-4)GlcNAc(b1-4)[Fuc(a1-6)]GlcNAc. Put shortly:
as §1

For assay [21], the target named is GlcNAc(b1-2)[GlcNAc(b1-6)]Man(a1-6)[GlcNAc(b1-4)][GlcNAc(b1-2)Man(a1-3)]Man(b1-4)GlcNAc(b1-4)GlcNAc. Put shortly:
as §1

In the next assay the target is GlcNAc(b1-3)Fuc. Put shortly: as §1

B1: Endo180d1-D4 (Homo sapiens), Q9UBG0 (protein)
chain: MGPGRPAPAPWPRHLLRCVLLLGCLHLGRPGAPGDAALPEPNVFLIFSHGLQGCLEAQGGQVRVTPACNTSLPAQRWKWVSRNRLFNLGTMQCLGTGWPGTNTTASLGMYECDREALNLRWHCRTLGDQLSLLLGARTSNISKPGTLERGDQTRSGQWRIYGSEEDLCALPYHEVYTIQGNSHGKPCTIPFKYDNQWFHGCTSTGREDGHLWCATTQDYGKDERWGFCPIKSNDCETFWDKDQLTDSCYQFNFQSTLSWREAWASCEQQGADLLSITEIHEQTYINGLLTGYSSTLWIGLNDLDTSGGWQWSDNSPLKYLNWESDQPDNPSEENCGVIRTESSGGWQNRDCSIALPYVCKKKPNATAEPTPPDRWANVKVECEPSWQPFQGHCYRLQAEKRSWQESKKACLRGGGDLVSIHSMAELEFITKQIKQEVEELWIGLNDLKLQMNFEWSDGSLVSFTHWHPFEPNNFRDSLEDCVTIWGPEGRWNDSPCNQSLPSICKKAGQLSQGAAEEDHGCRKGWTWHSPSCYWLGEDQVTYSEARRLCTDHGSQLVTITNRFEQAFVSSLIYNWEGEYFWTALQDLNSTGSFFWLSGDEVMYTHWNRDQPGYSRGGCVALATGSAMGLWEVKNCTSFRARYICRQSLGTPVTPELPGPDPTPSLTGSCPQGWASDTKLRYCYKVFSSERLQDKKSWVQAQGACQELGAQLLSLASYEEEHFVANMLNKIFGESEPEIHEQHWFWIGLNRRDPRGGQSWRWSDGVGFSYHNFDRSRHDDDDIRGCAVLDLASLQWVAMQCDTQLDWICKIPRGTDVREPDDSPQGRREWLRFQEAEYKFFEHHSTWAQAQRICTWFQAELTSVHSQAELDFLSHNLQKFSRAQEQHWWIGLHTSESDGRFRWTDGSIINFISWAPGKPRPVGKDKKCVYMTASREDWGDQRCLTALPYICKRSNVTKETQPPDLPTTALGGCPSDWIQFLNKCFQVQGQEPQSRVKWSEAQFSCEQQEAQLVTITNPLEQAFITASLPNVTFDLWIGLHASQRDFQWVEQEPLMYANWAPGEPSGPSPAPSGNKPTSCAVVLHSPSAHFTGRWDDRSCTEETHGFICQKGTDPSLSPSPAALPPAPGTELSYLNGTFRLLQKPLRWHDALLLCESHNASLAYVPDPYTQAFLTQAARGLRTPLWIGLAGEEGSRRYSWVSEEPLNYVGWQDGEPQQPGGCTYVDVDGAWRTTSCDTKLQGAVCGVSSGPPPPRRISYHGSCPQGLADSAWIPFREHCYSFHMELLLGHKEARQRCQRAGGAVLSILDEMENVFVWEHLQSYEGQSRGAWLGMNFNPKGGTLVWQDNTAVNYSNWGPPGLGPSMLSHNSCYWIQSNSGLWRPGACTNITMGVVCKLPRAEQSSFSPSALPENPAALVVVLMAVLLLLALLTAALILYRRRQSIERGAFEGARYSRSSSSPTEATEKNILVSDMEMNEQQE
For the molecule B1, the “glycan array binding signal (z-score)” value was 0.118 in assay [1]; 0.364 in assay [2]; -0.567 in [3]; 0.372 in [4]; 0.607 in assay [5]; -0.765 in assay [6]. Besides, the “glycan array binding signal (z-score)” value in assay [7] is -1.03; in assay [8] it was -0.416; in assay [9], -0.055; in [10], -0.524; in [11] it was -0.032; in assay [12], 5.6. In addition, the “glycan array binding signal (z-score)” value in assay [13] is -0.82; in [14] it was -0.027; in assay [15] it was -1.06; in assay [16] it was -0.162; in assay [17], 0.446; in assay [18] it was 1.13. Besides, the “glycan array binding signal (z-score)” value in assay [19] turned out to be 0.094; in assay [20], 0.318; in [21] it was 0.137; with GlcNAc(b1-3)Fuc, 0.059.
